For at least one entry, the source does not settle the construct or the ends of the probe. At least one verdict was read from the data and is not stated in words by the source.
Tested on: MBD6 MBD domain-MBP-His + ASXL1 ASXH domain
Assay: EMSA
Details: ASXL1 ASXH present, MBD6-m5C binding not affected; 5-methyl-dC at positions 7, 19, 31; recombinant protein; protein details: C-terminal MBP-6xHis,His-SUMO; label: 5' 6-FAM; single-stranded DNA

TATGACCTGCGGTATGACCTGCGGTATGACCTGCGG [p1-m5C (ss)]
binding result: binds

From article PMC11499264, “RNA m5C oxidation by TET2 regulates chromatin state and leukaemogenesis”
